# Screening data, single-dose tests

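Whole-cell growth test on Mycobacterium tuberculosis, read after 3 days in glucose-containing 7H9 medium; the read-out is not stated. Compounds at 50 µM. The record gives no direction; compounds that gave an IC50 in retests scored well above the rest, so higher reads as more growth inhibition. About 69,000 compounds were tested under these conditions; 1.1% (about 760) showed 50% or more at least once.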

The filed quantity is “Percent Effect” (%).
The controls that fix the scale are not given in the record; negative values are as filed.
This is an unselected part of the compounds tested.
Two or more numbers in one place are separate tests of the same structure; such repeats can differ widely.

For O=C(NCCc1ccc(F)cc1)C1CN(C(=O)Cn2cncn2)C1 the result was -35.68%. COC(=O)NCCC(=O)NC(C)Cc1cccc(Br)c1 (stereo not shown) read 17.11%. With CCOC(C)c1noc(CN2CCN(Cc3cccnc3)CC2)n1 (stereo not shown) the screen gave 39.24%. With Cc1cccc(N2CCN(C(=O)NC(C)c3nncn3C)CC2)c1C (stereo not shown) the screen gave -4.745%. Cc1cccc(CN2CC3(CCN(C(=O)N(C)C)CC3)OCC2=O)n1.O=C(O)C(F)(F)F read 20.18%. O=C(O)C(F)(F)F.O=C(O)C(F)(F)F.[H][C@@]12CCCO[C@]1([H])[C@@H](OCc1ccncc1)CN2Cc1c(C)noc1C gave 9.567%. O=C(Nc1ccccc1)c1ccc(NCc2ccncc2)nn1 gave 43.04%.

For O=C(CN1CCCC1Cn1cncn1)Nc1nccs1 (stereo not shown) the result was 5.933%. Result for CSCCCN1CCn2nc(CNC(=O)N(C)C)cc2C1 was -9.039%. Result for O=C(O)C(F)(F)F.O=C(O)C(F)(F)F.[H][C@@]12C[C@H](C(=O)Nc3cccnc3)[C@@]([H])(CN(CCC(C)C)C1)O2 was -13.5%. For COc1cc(F)ccc1C(C(=O)O)N1CCN(C2CCCCC2)CC1 (stereo not shown) the result was -9.716%. Cc1cc(CC(=O)NCC(O)c2ccc(OC(F)F)cc2)n[nH]1 (stereo not shown) gave -3.476% & 7.225%. Result for Cc1c(NCCO)cccc1OC1CCCC1 was -2.202%. For CC(=O)NCC1CCC2(CCN(c3ncc(C)cn3)CC2)O1 (stereo not shown) the result was -42.71%.

With Fc1cccc(N2CCOC3(CCCN(c4nncs4)C3)C2)c1 (stereo not shown) the screen gave 7.554% & 1.526%. CCc1ncncc1C(=O)Nc1ccc2ccn(CCN(C)C)c2c1 read 18.43%. CC[C@@H](Cn1ncc2ccccc2c1=O)NC(=O)c1cnccn1 gave -9.725%. Result for COCCN1CCN(Cc2coc(-c3ccccc3Cl)n2)CC1 was 10.95% & 3.044%. O=C(c1ccn(-c2cccc(F)c2)n1)N1CCN(CCO)CC1 read -7.628%. Result for CC(C)CN(C(=O)Nc1cccnc1)C1CC1 was -8.778%. With Cc1ccc(CN2CCCn3cnc(COCC4CC4)c3C2)o1.O=C(O)C(F)(F)F the screen gave -2.622% & -4.741%.

For O=C(c1ccccc1)C1CCN(c2cncc(-n3cccn3)n2)CC1 the result was 23.17% & -6.458%. CC[C@@H]1N(Cc2ccc(C)s2)CCC[C@]12CCC(=O)N2C.O=C(O)C(F)(F)F read 0.4959%. Result for Cc1ccc(C(=O)N2CCC3(CC2)COCCN(S(C)(=O)=O)C3)cc1C was 7.273%. For Cc1cnc(N2CCC3(CC2)CC(NC(=O)C(C)C)CO3)nc1 (stereo not shown) the result was -14.03%. Result for Cc1ccc(N2CCCC(NC(=O)CCc3ccccn3)C2=O)cc1 (stereo not shown) was 6.612%. With COc1cc(C(=O)Nc2nc(C)no2)ccc1OC1CCCC1 the screen gave -14.03%. O=C(c1ccsc1)N1CCC(Nc2cccnn2)CC1 read 12.87%.

Result for [H][C@@]12CCN(C(=O)c3c(C)noc3C)C[C@]1(c1nc(C)no1)CCO2 was 12.55% & -1.432%. COC(=O)N1CCC(c2nnc(Cn3ccnc3)n2C)CC1 gave -22.22%. For COc1ccc(C(=O)NC2CC2)c(OC)c1 the result was 21.51%. Result for COc1cccc(CNCCc2cc(F)cc3c2OCOC3)c1OC was 10.79%. Cc1ccc2c(c1)c(CNC(=O)C1CC(=O)N(CCN(C)C)C1)nn2C (stereo not shown) gave -0.612%. COCc1cccc(CNC(=O)CN2CCCC2c2noc(C)n2)c1 (stereo not shown) read 17.7%.

The first 3 entries again:

{"smiles": "O=C(NCCc1ccc(F)cc1)C1CN(C(=O)Cn2cncn2)C1", "percent effect": -35.68}
{"smiles": "COC(=O)NCCC(=O)NC(C)Cc1cccc(Br)c1", "stereo": "stereo not shown", "percent effect": 17.11}
{"smiles": "CCOC(C)c1noc(CN2CCN(Cc3cccnc3)CC2)n1", "stereo": "stereo not shown", "percent effect": 39.24}

Data taken from ChEMBL document CHEMBL3988442, “University of Dundee, Small-Polar-MMV Screening Library” (2021).